This note sets out measurements from PMC5249081.

No constants are given. Whether binding was seen depends on the method and setting. In cells and extracts the contact can be indirect. For some assays here: Binding can be weak; no strength is given.

For experiment [1], the target named is T1, cytochrome c oxidase subunit II (Paracoccus denitrificans (endogenous in Pd1222 membranes)) (UniProt P08306).
T1 sequence: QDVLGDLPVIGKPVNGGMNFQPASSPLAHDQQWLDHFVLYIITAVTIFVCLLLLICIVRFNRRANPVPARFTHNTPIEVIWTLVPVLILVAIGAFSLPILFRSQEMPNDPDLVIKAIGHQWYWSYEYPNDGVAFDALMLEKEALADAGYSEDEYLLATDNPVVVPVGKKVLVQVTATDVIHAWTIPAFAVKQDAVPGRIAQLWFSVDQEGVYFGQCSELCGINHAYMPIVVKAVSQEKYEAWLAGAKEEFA
As to the kind of experiment: co-IP; membranes of untreated (non-crosslinked) cells (WT, FA2, MR31) solubilised with digitonin 8 g/g in 50 mM Tris/HCl pH 7.2; antiserum (anti-COX, anti-CtaG, anti-Surf1c, anti-CtaA) on protein A/G magnetic beads; washes 20 mM Tris/HCl pH 7.2, 50 mM NaCl, 0.08% digitonin; eluates immunoblotted. A general note: In western blotting, separated proteins are transferred to a membrane and probed.

In experiment [2] the target is Surf1c (Paracoccus denitrificans (endogenous in Pd1222 membranes)). The experiment is described as above.

CtaG: the binding result in experiment [1] is listed as “binds”.

B1: heme a synthase CtaA (enzyme, UniProt A1B8C2 1-381)
chain: MARRPVFQEVTETTPPGTTPSGGMIDAGHKGARGAIRLWLVVLFVMVAAMIALGGATRLTGSGLSITEWKPVTGAIPPMDAATWQAEFDKYRQIPQFELVNSDMDLASFKRIYWWEWSHRLLGRLVGLVWAAGFVFFLATRRIPTGWTPRLLLLGALGGAQGAIGWWMVHSGLSGEMVRVASYRLATHLGLAFAILGLIAWYVLALSRSEAALLRARRAGEAKLFSMTTGLMHLAFVQILLGALVAGIDAGRMYTGWPTMGGEWIPAEIWDATLGWRNFFENPALVQFIHRMTGYLLAVFAVVVFLRARRSPHPVTRGAYVAMLVALAVQVALGIMNVLHASPLPLALAHQIGAVALFTLILRARHHARYPYETSVRGTVR
On to B1, for which the binding entry in experiment [2] is on record as “no binding”.
